Measured values published in article PMC4996131.
These are yes or no findings as the source states them, for the method shown. Binding seen in cells or lysates may run through a third protein. Some results given as binding are weak or reduced against the parent protein; the word gives no strength.

By UniProt entry, the sequences of proteins in these tests, tags left out.
UniProt P46940: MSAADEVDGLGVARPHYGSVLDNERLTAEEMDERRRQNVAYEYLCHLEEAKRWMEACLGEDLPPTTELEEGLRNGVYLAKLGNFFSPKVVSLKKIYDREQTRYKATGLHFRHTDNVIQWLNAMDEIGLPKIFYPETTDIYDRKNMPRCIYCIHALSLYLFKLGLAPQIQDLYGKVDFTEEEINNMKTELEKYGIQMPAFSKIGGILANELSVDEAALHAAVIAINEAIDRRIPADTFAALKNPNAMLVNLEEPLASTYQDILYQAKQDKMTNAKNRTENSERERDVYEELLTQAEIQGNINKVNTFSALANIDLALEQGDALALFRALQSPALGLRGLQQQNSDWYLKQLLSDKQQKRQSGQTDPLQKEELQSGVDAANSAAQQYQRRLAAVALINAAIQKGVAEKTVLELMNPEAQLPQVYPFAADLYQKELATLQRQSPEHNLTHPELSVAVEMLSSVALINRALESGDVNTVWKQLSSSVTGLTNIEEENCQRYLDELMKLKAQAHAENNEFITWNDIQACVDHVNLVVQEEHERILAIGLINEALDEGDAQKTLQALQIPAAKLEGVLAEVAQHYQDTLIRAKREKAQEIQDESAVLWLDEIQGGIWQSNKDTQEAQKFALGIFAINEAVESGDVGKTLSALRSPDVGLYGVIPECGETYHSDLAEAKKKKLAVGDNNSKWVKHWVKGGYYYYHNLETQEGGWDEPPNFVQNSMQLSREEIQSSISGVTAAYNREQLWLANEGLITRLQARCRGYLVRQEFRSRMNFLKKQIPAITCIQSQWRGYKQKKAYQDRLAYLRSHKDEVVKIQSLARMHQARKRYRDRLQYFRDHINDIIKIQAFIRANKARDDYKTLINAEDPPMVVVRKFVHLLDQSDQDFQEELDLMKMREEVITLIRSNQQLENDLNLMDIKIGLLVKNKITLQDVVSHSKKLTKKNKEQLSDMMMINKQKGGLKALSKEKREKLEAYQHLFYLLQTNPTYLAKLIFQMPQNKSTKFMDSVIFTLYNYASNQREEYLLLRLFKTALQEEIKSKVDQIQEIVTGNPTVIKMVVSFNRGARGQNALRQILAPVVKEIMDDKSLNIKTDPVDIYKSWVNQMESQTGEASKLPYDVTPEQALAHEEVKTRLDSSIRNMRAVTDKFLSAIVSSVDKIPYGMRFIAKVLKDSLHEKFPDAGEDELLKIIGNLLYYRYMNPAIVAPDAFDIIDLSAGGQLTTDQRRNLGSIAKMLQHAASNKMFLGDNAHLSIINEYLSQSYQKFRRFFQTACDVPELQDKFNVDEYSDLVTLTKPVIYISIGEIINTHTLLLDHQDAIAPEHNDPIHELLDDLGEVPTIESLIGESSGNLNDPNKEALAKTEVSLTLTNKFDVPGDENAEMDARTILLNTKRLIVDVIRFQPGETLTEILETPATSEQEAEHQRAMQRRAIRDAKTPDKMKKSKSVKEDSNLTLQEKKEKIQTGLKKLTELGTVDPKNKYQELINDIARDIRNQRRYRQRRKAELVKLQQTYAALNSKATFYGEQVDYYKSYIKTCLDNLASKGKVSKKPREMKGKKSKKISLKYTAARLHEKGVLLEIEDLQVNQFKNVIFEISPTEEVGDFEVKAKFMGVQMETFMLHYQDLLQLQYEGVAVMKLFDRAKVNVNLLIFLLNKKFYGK
UniProt P35222: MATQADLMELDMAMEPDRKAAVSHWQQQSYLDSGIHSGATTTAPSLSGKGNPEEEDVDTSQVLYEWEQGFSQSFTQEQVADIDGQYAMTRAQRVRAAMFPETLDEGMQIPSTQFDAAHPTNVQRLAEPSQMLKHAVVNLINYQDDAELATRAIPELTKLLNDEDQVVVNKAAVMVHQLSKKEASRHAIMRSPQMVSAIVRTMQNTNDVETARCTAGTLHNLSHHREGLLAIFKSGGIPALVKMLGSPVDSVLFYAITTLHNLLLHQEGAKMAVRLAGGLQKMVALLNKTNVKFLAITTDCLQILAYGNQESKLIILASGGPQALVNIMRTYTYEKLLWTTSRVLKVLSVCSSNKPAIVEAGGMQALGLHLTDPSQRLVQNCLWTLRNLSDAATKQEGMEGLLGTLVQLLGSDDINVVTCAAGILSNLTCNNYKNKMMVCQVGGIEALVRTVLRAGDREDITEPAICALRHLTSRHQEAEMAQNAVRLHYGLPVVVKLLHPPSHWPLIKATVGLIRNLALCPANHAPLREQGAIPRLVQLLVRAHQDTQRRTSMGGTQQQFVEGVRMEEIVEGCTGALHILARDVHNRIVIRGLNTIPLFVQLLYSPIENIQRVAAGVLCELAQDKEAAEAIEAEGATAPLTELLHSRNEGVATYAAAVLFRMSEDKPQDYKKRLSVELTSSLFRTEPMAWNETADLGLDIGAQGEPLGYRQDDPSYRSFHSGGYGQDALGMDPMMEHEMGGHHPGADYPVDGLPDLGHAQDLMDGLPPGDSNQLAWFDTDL

Target: IQGAP1 (human (endogenous in primary RPE cells)) (UniProt P46940)
Test: co-IP; endogenous proteins in RIPA lysates of human primary RPE cells (500 µg protein); antibody to β-catenin, IQGAP1 or pan-cadherin with Dynabeads protein G, 4 °C overnight, three washes in RIPA; blot for the partner; cells treated with PBS, H2O2 (10 µmol/l) or TNFα (20 ng/ml) for 5 h or overnight, IQGAP1 or control siRNA, Ad-GFP or Ad-63E (active Rap1a)

Substance: β-catenin (from UniProt P35222 1-781)
- binding: binds
